Source: patent US20200255499A1 (COUNCIL OF THE QUEENSLAND INSTITUTE OF MEDICAL RESEARCH, published 2020)
No constants are given. Whether binding was seen depends on the method and setting. Some binding calls cover weakened binding; strength is not graded here.

Chains of the proteins cited; added tags and fusions are not shown. Residues count along the entry.
UniProt P03200, residues 1-860: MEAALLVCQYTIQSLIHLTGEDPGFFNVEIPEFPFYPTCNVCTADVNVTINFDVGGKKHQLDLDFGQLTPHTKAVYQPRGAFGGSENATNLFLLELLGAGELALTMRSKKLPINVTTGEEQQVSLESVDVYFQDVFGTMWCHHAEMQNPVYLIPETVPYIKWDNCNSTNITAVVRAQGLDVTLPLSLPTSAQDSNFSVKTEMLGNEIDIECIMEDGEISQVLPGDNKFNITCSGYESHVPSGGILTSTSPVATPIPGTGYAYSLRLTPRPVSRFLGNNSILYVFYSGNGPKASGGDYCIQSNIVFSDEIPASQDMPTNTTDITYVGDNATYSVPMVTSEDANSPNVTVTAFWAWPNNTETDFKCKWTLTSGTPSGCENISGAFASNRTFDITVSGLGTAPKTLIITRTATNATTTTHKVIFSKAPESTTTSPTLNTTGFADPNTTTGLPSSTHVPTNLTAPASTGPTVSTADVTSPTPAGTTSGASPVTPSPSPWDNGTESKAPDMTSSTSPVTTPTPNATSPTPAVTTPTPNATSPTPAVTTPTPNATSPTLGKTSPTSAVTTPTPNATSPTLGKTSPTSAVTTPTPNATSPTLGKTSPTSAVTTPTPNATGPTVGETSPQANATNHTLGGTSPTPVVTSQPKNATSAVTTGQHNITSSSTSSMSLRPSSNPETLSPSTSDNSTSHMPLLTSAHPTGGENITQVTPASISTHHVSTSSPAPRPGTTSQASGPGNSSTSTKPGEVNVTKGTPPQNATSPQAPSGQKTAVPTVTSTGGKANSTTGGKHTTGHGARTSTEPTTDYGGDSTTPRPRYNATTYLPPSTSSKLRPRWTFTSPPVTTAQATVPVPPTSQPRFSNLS

Biological target: Epstein Barr Virus (EBV) glycoprotein gp350 (Epstein-Barr virus) (UniProt P03200)
Assay: SPR, gp350 immobilised on CM5 chip, single cycle kinetics

Row | Binder | binding
1 | Clone B8 recombinant human IgG1 monoclonal antibody (antibody, V domains shown, also called antibody B8) VH: EVQLVESAGEVQKPGESLRISCKASGYTFSHYWIGWVRQLPGKGLEWMGIIYPDDSDSRYSPSFQGQVTMSVDKSINTAYLQWNSLKVSDTATYYCVRHWLKRGSNFGFGFDPWGQGTTLTVSS VL: ESALTQPASVSGSPGQSITISCTGTSSDVGGYNYVSWYQQHPGKAPKLMIYDVSNRPSGVSNRFSGSKSGNTASLTISGLQAEDEADYYCSSYTSSSTLVFGGGTKLTVLG | binds
2 | Clone A11 recombinant human IgG1 monoclonal antibody (antibody, V domains shown, also called Antibody A11) VH: EMQLVQSGAEVKKPGASVKVSCKTSGYNFNHQGISWLRQAPGQGLEWMGWISGFNGKTNYAQKFQGRVTMTADRSTTTAYMELRSLRSDDTAVYYCASGGEQWLVQNFVHWGQGTLLTVSS VL: ETVLTQEPSLTVSPGGTVTLTCASSTGAVTSGYYPNWFQQKPGQAPRALIYSTSNKHSWTPARFSGSLLGGKAALTLSGVQPEDEAEYYCLLYYGGAWVFGGGTKLTVLG | binds
3 | Clone B7 recombinant human IgG1 monoclonal antibody (antibody, V domains shown, also called Antibody B7) VH: EVQLVQSGAEVKKPGASVEVSCKASGYTFNAYYIHWVRQAPGQGLDWMGWINPNSGGTNYAQNFKGRVTMTRDTSISTAYLELRSLTSDDTAVYFCATERGYTSSFRRDAFDKWGQGTMLTVSS VL: ESVLTQPPSVSAAPGQKVTISCSGSSSNIGNNYVSWYQQLPGTAPKLLIYENNKRPSGIPDRFSGSKSGTSATLGITGLQTGDEAGYYCGTWDSSLSAVVFGGGTKLTVLG | binds
